Data reported in the supplement of paper PMC4862054.
Most values lie at the level of the controls, where differences are scatter.

Tests used:
Assay in all cases: normalised response (% of control), CellTox Green; higher = less cell death (100 = DMSO, 0 = benzethonium chloride kill control)
Conditions in all cases: incubation time: 72 h
BT-474 [1] = system: BT-474
Description: (§1)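 DSRT, 72 h incubation, CellTox Green / CellTiter-Glo readout. Signal is normalised to DMSO and benzethonium chloride controls. Value is the normalised response at the lowest tested concentration.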

BT-549 [2] = system: BT-549
Description: as §1

CAL-120 [3] = system: CAL-120
Description: as §1

CAL-148 [4] = system: CAL-148
Description: as §1

CAL-51 [5] = system: CAL-51
Description: as §1

CAL-85-1 [6] = system: CAL-85-1
Description: as §1

DU-4475 [7] = system: DU-4475
Description: as §1

HCC1143 [8] = system: HCC1143
Description: as §1

HCC1599 [9] = system: HCC1599
Description: as §1

HCC1937 [10] = system: HCC1937
Description: as §1

Hs578T [11] = system: Hs578T
Description: as §1

MCF-10A [12] = system: MCF-10A
Description: as §1

MDA-MB-231 [13] = system: MDA-MB-231
Description: as §1

MDA-MB-436 [14] = system: MDA-MB-436
Description: as §1

MDA-MB-453 [15] = system: MDA-MB-453
Description: as §1

MDA-MB-468 [16] = system: MDA-MB-468
Description: as §1

MFM-223 [17] = system: MFM-223
Description: as §1

BT-474 [18] = system: BT-474; remark: listed apart in the source
Description: (§2)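 DSRT, 72 h incubation, CellTox Green / CellTiter-Glo readout. Signal is normalised to DMSO and benzethonium chloride controls. Value is the normalised response at dose 2.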

BT-549 [19] = system: BT-549; remark: listed apart in the source
Description: as §2

CAL-120 [20] = system: CAL-120; remark: listed apart in the source
Description: as §2

CAL-148 [21] = system: CAL-148; remark: listed apart in the source
Description: as §2

CAL-51 [22] = system: CAL-51; remark: listed apart in the source
Description: as §2

CAL-85-1 [23] = system: CAL-85-1; remark: listed apart in the source
Description: as §2

DU-4475 [24] = system: DU-4475; remark: listed apart in the source
Description: as §2

HCC1143 [25] = system: HCC1143; remark: listed apart in the source
Description: as §2

HCC1599 [26] = system: HCC1599; remark: listed apart in the source
Description: as §2

HCC1937 [27] = system: HCC1937; remark: listed apart in the source
Description: as §2

HDQ-P1 [28] = system: HDQ-P1
Description: as §2

Hs578T [29] = system: Hs578T; remark: listed apart in the source
Description: as §2

MCF-10A [30] = system: MCF-10A; remark: listed apart in the source
Description: as §2

MDA-MB-231 [31] = system: MDA-MB-231; remark: listed apart in the source
Description: as §2

MDA-MB-436 [32] = system: MDA-MB-436; remark: listed apart in the source
Description: as §2

MDA-MB-453 [33] = system: MDA-MB-453; remark: listed apart in the source
Description: as §2

MDA-MB-468 [34] = system: MDA-MB-468; remark: listed apart in the source
Description: as §2

MFM-223 [35] = system: MFM-223; remark: listed apart in the source
Description: as §2

HDQ-P1 [36] = system: HDQ-P1; remark: listed apart in the source
Description: as §1

Structure (SMILES) | normalised response (BT-474 [1]) | normalised response (BT-549 [2]) | normalised response (CAL-120 [3]) | normalised response (CAL-148 [4]) | normalised response (CAL-51 [5]) | normalised response (CAL-85-1 [6]) | normalised response (DU-4475 [7]) | normalised response (HCC1143 [8]) | normalised response (HCC1599 [9]) | normalised response (HCC1937 [10]) | normalised response (Hs578T [11]) | normalised response (MCF-10A [12]) | normalised response (MDA-MB-231 [13]) | normalised response (MDA-MB-436 [14]) | normalised response (MDA-MB-453 [15]) | normalised response (MDA-MB-468 [16]) | normalised response (MFM-223 [17]) | normalised response (BT-474 [18]) | normalised response (BT-549 [19]) | normalised response (CAL-120 [20]) | normalised response (CAL-148 [21]) | normalised response (CAL-51 [22]) | normalised response (CAL-85-1 [23]) | normalised response (DU-4475 [24]) | normalised response (HCC1143 [25]) | normalised response (HCC1599 [26]) | normalised response (HCC1937 [27]) | normalised response (HDQ-P1 [28]) | normalised response (Hs578T [29]) | normalised response (MCF-10A [30]) | normalised response (MDA-MB-231 [31]) | normalised response (MDA-MB-436 [32]) | normalised response (MDA-MB-453 [33]) | normalised response (MDA-MB-468 [34]) | normalised response (MFM-223 [35]) | normalised response (HDQ-P1 [36])
CC(C)(C)c1cc(NC(=O)Nc2ccc(-c3cn4c(n3)sc3cc(OCCN5CCOCC5)ccc34)cc2)no1 [Quizartinib] (0.1 nM) | 104% | 84% | 103% | 83% | 105% | 103% | 98.8% | 108% | 91.5% | 84.2% | 108% | 61.6% | 100% | 94.7% | 112% | 95.8% | 98.9% | – | – | – | – | – | – | – | – | – | – | – | – | – | – | – | – | – | – | –
COc1cc2nccc(Oc3ccc(NC(=O)C4(C(=O)Nc5ccc(F)cc5)CC4)cc3)c2cc1OC [Cabozantinib] (0.1 nM) | 100% | 96.1% | 93.7% | 97.5% | 99.6% | 109% | 98.1% | 105% | 90.7% | 85.3% | 66.8% | 98.5% | 95.9% | – | 92.9% | 53.5% | 97.7% | – | – | – | – | – | – | – | – | – | – | – | – | – | – | – | – | – | – | –
O=C(NC[C@H](O)CO)c1ccncc1Nc1ccc(I)cc1F [Pimasertib] (10 nM) | – | – | – | – | – | – | – | – | – | – | – | – | – | – | – | – | – | 100% | 91.7% | 104% | 82.5% | 110% | 87.7% | 112% | 117% | 119% | 102% | 73.5% | 111% | 117% | 92.7% | 74.5% | 110% | 82.1% | 92.5% | –
Cn1cc(C[C@@H](N)C(=O)O)c2ccccc21 [1-methyl-D-tryptophan] (5 nM) | – | – | – | – | – | – | – | – | – | – | – | – | – | – | – | – | – | 86.5% | 89.9% | 60% | 106% | 98.5% | 89.7% | 95.6% | 85.1% | 94.7% | 85.8% | 105% | 115% | 66.7% | 103% | 74.1% | 95% | 92.3% | 99.1% | –
C=CC[C@@H]1/C=C(\C)C[C@H](C)C[C@H](OC)[C@H]2O[C@@](O)(C(=O)C(=O)N3CCCC[C@H]3C(=O)O[C@H](/C(C)=C/[C@@H]3CC[C@@H](O)[C@H](OC)C3)[C@H](C)[C@@H](O)CC1=O)[C@H](C)C[C@@H]2OC [Tacrolimus] (1 nM) | 98.1% | 90.5% | 102% | – | 103% | 91.3% | 92.1% | 110% | 94.1% | 107% | 68.3% | 102% | 94.2% | 69.9% | 102% | 117% | 101% | – | – | – | – | – | – | – | – | – | – | – | – | – | – | – | – | – | – | –
CCN(CC)CCCC(C)Nc1c2ccc(Cl)cc2nc2ccc(OC)cc12 (configuration not stated) [Mepacrine] (50 nM) | – | – | – | – | – | – | – | – | – | – | – | – | – | – | – | – | – | 103% | 105% | 101% | 99.2% | 103% | 101% | 96.2% | 105% | 91.2% | 66.7% | 112% | 123% | 102% | 100% | 84.3% | 95.5% | 100% | 84.5% | –
Cc1cn(-c2cc(NC(=O)c3ccc(C)c(Nc4nccc(-c5cccnc5)n4)c3)cc(C(F)(F)F)c2)cn1 [Nilotinib] (1 nM) | 102% | 94.1% | 95.1% | 98.8% | 107% | 97.1% | 98.3% | – | 92.5% | 65.2% | 107% | 98.4% | 100% | 92.4% | 97.3% | – | 104% | – | – | – | – | – | – | – | – | – | – | – | – | – | – | – | – | – | – | 70.8%
